Assay results from patent US20250205191A1, “R(-)-MDMA COMPOSITIONS AND METHODS OF TREATMENT” (EmpathBio, Inc., priority 2023, published 2025).

Tested on: mature BDNF (mBDNF)
Assay: Phase 1 neuroplasticity biomarker mBDNF
Assay type: in vivo, human

SMILES: CN[C@H](C)Cc1ccc2c(c1)OCO2 [R(−)-MDMA, R(−)-3,4-methylenedioxymethamphetamine]
- mean concentration of mBDNF (125 mg group in the fed state, Day 10): nominal increase
- mBDNF change (225 mg group, Day +1): numerical increase
- mean concentration of mBDNF (R(−)-MDMA Total group, Day 2): nominal reduction
- mBDNF change (all other cohorts (75, 125, 175 mg)): numerical decreases
